From patent US20100247515A1
These are yes or no findings as the source states them, for the method shown. Some results given as binding are weak or reduced against the parent protein; the word gives no strength.

Sequences of proteins named here, by UniProt entry; tags and fusion partners are left off. Residues count along the entry.
UniProt P19438, residues 22-211: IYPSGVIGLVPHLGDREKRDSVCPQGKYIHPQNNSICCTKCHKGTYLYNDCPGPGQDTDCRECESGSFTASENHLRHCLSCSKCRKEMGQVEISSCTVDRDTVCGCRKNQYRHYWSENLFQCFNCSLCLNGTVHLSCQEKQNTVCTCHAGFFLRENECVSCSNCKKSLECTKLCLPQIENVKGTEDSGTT

Experiments:
[1] = target: human TNFR1 (soluble recombinant protein) (human) (UniProt P19438); experiment: BIAcore, immobilized TNFR1, dAb 500 nM after incubation with trypsin 0-100 ug/ml (legend: overnight at 37 C; panel title: '100ug/ml Trypsin - 1hr')
[2] = target: human TNFR1 (soluble recombinant protein) (human) (UniProt P19438); experiment: BIAcore, biotinylated TNFR1 on SA chip, dAb 250 nM after 100 ug/ml trypsin, elastase or leucozyme for 1, 3 or 24 h at 30 C; response at 10 secs relative to dAb without protease, mean of three experiments
[3] = target: human TNFR1 (soluble recombinant protein) (human) (UniProt P19438); experiment: BIAcore after overnight trypsin incubation (0-100 µg/ml)
[4] = target: human TNFR1 (soluble recombinant protein) (human) (UniProt P19438); experiment: BIAcore
[5] = target: human TNFR1 (soluble recombinant protein) (human) (UniProt P19438); experiment: BIAcore after overnight elastase or leucozyme incubation
[6] = target: human TNFR1 (soluble recombinant protein) (human) (UniProt P19438); experiment: BIAcore, immobilized TNFR1, dAb without protease or after overnight incubation with elastase or leucozyme (text: 500 nM dAb, 100 ug/ml protease, 37 C)

Measured: binding

B1: DOM1h-131-206 (protein)
VH: EVQLLESGGGLVQPGGSLRLSCAASGFTFAHETMVWVRQAPGKGLEWVSHIPPDGQDPFYADSVKGRFTISRDNSKNTLYLQMNSLRAEDTAVYHCALLPKRGPWFDYWGQGTLVTVSS
binds: [1] | [2] | [3] | [4] | [5] | [6]
